Results reported in article PMC3679059.

Protein sequences, listed by entry. Tags and fused reporters are not part of them. Lines headed by an entry give the natural chain unless they say otherwise; changes in a name come on top.
UniProt Q7DZ57: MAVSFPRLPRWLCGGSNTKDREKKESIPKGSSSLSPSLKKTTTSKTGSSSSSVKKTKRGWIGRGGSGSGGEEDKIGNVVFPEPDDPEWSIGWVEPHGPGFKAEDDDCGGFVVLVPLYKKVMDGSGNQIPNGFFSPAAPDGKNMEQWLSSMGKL

Experiments:
[1] = target: T1, BAM2-GFP (full-length) (Arabidopsis) (UniProt Q9M2Z1); assay: co-IP; proteins co-expressed in N. benthamiana; soluble membrane fraction after depletion of detergent-resistant membranes (DRM); IP of the GFP fusion, CCI1-FLAG detected
T1 sequence: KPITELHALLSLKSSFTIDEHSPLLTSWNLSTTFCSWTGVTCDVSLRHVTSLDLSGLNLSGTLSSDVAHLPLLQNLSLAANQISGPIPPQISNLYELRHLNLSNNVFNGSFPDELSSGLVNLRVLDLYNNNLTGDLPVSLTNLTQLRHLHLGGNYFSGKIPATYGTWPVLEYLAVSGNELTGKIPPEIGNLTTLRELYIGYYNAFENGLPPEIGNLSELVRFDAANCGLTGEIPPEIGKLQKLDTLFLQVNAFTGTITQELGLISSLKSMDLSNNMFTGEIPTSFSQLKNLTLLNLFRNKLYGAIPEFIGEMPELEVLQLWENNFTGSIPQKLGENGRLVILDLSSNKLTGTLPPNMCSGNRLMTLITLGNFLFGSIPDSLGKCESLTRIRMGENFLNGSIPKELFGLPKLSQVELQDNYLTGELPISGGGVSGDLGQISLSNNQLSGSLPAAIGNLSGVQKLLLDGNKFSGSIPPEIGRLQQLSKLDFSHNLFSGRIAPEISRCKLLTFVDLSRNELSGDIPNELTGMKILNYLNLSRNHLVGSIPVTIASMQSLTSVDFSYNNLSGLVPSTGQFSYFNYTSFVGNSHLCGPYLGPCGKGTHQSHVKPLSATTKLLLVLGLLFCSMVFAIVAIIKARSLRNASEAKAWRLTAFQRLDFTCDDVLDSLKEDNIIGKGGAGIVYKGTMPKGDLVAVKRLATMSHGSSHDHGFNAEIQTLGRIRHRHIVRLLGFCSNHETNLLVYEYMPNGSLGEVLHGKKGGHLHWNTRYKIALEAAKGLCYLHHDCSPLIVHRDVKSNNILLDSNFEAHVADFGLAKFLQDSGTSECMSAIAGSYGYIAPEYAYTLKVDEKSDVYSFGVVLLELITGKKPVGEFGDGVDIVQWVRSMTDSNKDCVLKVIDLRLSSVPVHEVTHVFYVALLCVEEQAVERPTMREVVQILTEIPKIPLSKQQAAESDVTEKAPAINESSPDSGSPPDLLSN

[2] = target: T2, CLV1-GFP (full-length) (Arabidopsis) (UniProt Q9SYQ8); assay: co-IP; proteins co-expressed in the same N. benthamiana leaves; total membrane fraction solubilised with 1% triton X-100; IP with anti-GFP and protein A agarose at 4°C, blot with anti-FLAG
T2 sequence: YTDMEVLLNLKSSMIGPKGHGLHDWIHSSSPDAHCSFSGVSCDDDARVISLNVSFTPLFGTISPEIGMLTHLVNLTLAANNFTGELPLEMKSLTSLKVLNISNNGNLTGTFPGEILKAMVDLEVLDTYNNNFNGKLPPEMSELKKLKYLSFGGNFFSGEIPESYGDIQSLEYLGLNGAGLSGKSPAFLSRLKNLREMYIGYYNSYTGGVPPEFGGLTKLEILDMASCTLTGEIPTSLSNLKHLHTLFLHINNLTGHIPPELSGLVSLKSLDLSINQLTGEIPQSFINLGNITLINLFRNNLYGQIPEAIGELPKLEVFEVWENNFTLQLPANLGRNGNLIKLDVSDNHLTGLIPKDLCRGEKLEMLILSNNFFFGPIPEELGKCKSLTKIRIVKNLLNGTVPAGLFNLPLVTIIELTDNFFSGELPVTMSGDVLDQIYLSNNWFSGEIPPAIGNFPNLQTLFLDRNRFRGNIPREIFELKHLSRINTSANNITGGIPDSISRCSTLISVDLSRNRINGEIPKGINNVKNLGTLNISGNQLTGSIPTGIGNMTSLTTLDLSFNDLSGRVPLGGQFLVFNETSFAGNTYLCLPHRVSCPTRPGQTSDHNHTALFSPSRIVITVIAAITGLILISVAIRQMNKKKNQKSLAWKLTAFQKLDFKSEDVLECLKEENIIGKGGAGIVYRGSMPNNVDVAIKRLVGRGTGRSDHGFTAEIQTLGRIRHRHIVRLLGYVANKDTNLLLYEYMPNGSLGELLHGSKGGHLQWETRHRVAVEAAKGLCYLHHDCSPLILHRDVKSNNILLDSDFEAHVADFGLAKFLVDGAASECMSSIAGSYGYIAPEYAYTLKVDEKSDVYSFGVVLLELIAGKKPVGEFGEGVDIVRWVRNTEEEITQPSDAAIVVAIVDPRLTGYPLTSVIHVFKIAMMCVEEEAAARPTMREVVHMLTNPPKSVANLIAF

CCI1-FLAG (from UniProt Q7DZ57)
binding [1]: binds
binding [2]: binds

These are yes or no findings as the source states them, for the method shown. In cells and extracts the contact can be indirect. A result given as binding can be weak or reduced; the word gives no strength. Tags and fused reporters may be left off the sequences shown.
